Laboratory results from publication PMC3322156.

By UniProt entry, the sequences of proteins in these tests, tags left out. Where a name states a change or a piece, a line headed by the entry shows the natural chain unless it says otherwise.
UniProt Q9CQJ4: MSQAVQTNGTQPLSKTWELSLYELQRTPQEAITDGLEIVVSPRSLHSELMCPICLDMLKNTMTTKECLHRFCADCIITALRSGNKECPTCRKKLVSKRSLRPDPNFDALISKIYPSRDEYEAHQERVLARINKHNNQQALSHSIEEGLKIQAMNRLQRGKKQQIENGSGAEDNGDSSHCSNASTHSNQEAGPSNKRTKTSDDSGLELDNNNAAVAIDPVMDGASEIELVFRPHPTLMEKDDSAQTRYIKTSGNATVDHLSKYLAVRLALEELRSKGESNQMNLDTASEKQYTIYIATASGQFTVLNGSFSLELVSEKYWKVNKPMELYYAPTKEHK

B1: Phc1 (protein, UniProt Q64028 1-1010)
chain: METESEQNSSSTNGSSSSGASSRPQIAQMSLYERQAVQALQALQRQPNAAQYFHQFMLQQQLSNAQLHSLAAVQQATIAASRQASSPNSSTAQQQTATTQASMNLATTSAAQLISRSQSVSSPSATTLTQSVLLGNTTSPPLNQSQAQMYLRPQLGNLLQVNRTLGRNVPLASQLILMPNGAVAAVQQEVPPAQSPGVHADADQVQNLAVRNQQASAQGPQMPGSTQKAIPPGASPVSGLSQTSSQALAVAQASSGASGQSLNLSQAGGGSGNSLPGSMGPGGGGQAPGGLGQLPSSGLTGGSCPRKGTGVVQPLPAAQTVTVSQGSQTEAESAAAKKAEADGSGQQSVGMNLTRTATPAPSQTLISSATYTQIQPHSLIQQQQQIHLQQKQVVIQQQIAIHHQQQFQHRQSQLLHTATHLQLAQQQQQQQQQQQQQQQQQQQQQQGTTLTAPQPPQVPPTQQVPPSQSQQQAQTLVVQPMLQSSPLTLPPEPTSKPPIPIQSKPPVAPIKPPQLGAAKMSATQQPPPHIPVQVVGTRQPGSAQAQALGLAQLAAAVPTPRGITGAVQPGQAHLASSPPSSQAAPGALQECPPALAAGMTLAPVQGTAHVVKGGPTASSPVVAQVPAAFYMQSVHLPGKAQTLAVKRKAESEEERDDLSALASVLPTKASPAAESPKVIEEKNSLGEKAEPVASLNANPPNSDLVALAPTPSAPPPTLALVSRQMGDSKPPQAIVKPQILTHIIEGFVIQEGAEPFPVGCSQFLKETKKPLQAGLPTGLNESQPSGPLGGDSPSVELEKKANLLKCEYCGKYAPAEQFRGSKRFCSMTCAKRYNVSCSHQFRLKRKKMKEFQEASYARVRRRGPRRSSSDIARAKIQGKRHRGQEDSSRGSDNSSYDEALSPTSPGPLSVRAGHGERDLGNTITTPSTPELQGINPVFLSSNPSQWSVEEVYEFIASLQGCQEIAEEFRSQEIDGQALLLLKEEHLMSAMNIKLGPALKICAKINVLKET
B2: Cbx4 (protein, UniProt O55187 1-551)
chain: MELPAVGEHVFAVESIEKKRIRKGRVEYLVKWRGWSPKYNTWEPEENILDPRLLIAFQNRERQEQLMGYRKRGPKPKPLVVQVPTFARRSNVLTGLQDSSADNRAKLELGTQGKGQGHQYELNSKKHHQYQPHSKERSGKPPPPGKSGKYYYQLNSKKHHPYQPDPKMYDLQYQGGHKEAPSPTCPDLGTKSHPPDKWAHGAAAKGYLGAVKPLGGGAGAPGKGSEKGPPNGMTPAPKEAVTGNGIGGKMKIVKNKNKNGRIVIVMSKYMENGMQAVKIKSGEAAEGEARSPSHKKRAAEERHPQGDRTFKKAAGASEEKKAEVPCKRREEEALVSGDAQPQDLGSRKLSPTKEAFGEQPLQLTTKPDLLAWDPARSSHPPAHHHHHHHHHHHHHTVGLNLSHARKRCLSETHGEREPCKKRLTARSISTPTCLGGSPVSEHPANVSPTAASLPQPEVILLDSDLDEPIDLRCVKMRSDAGEPPSTLQVKPEAPAVAAVVAPAPASEKPPAEAQEEPVEPLSEFKPFFGNIIITDVTANCLTVTFKEYVTV
B3: Ogt (enzyme, UniProt Q8CGY8 1-1046)
chain: MASSVGNVADSTEPTKRMLSFQGLAELAHREYQAGDFEAAERHCMQLWRQEPDNTGVLLLLSSIHFQCRRLDRSAHFSTLAIKQNPLLAEAYSNLGNVYKERGQLQEAIEHYRHALRLKPDFIDGYINLAAALVAAGDMEGAVQAYVSALQYNPDLYCVRSDLGNLLKALGRLEEAKACYLKAIETQPNFAVAWSNLGCVFNAQGEIWLAIHHFEKAVTLDPNFLDAYINLGNVLKEARIFDRAVAAYLRALSLSPNHAVVHGNLACVYYEQGLIDLAIDTYRRAIELQPHFPDAYCNLANALKEKGSVAEAEDCYNTALRLCPTHADSLNNLANIKREQGNIEEAVRLYRKALEVFPEFAAAHSNLASVLQQQGKLQEALMHYKEAIRISPTFADAYSNMGNTLKEMQDVQGALQCYTRAIQINPAFADAHSNLASIHKDSGNIPEAIASYRTALKLKPDFPDAYCNLAHCLQIVCDWTDYDERMKKLVSIVAEQLEKNRLPSVHPHHSMLYPLSHGFRKAIAERHGNLCLDKINVLHKPPYEHPKDLKLSDGRLRVGYVSSDFGNHPTSHLMQSIPGMHNPDKFEVFCYALSPDDGTNFRVKVMAEANHFIDLSQIPCNGKAADRIHQDGIHILVNMNGYTKGARNELFALRPAPIQAMWLGYPGTSGALFMDYIITDQETSPAEVAEQYSEKLAYMPHTFFIGDHANMFPHLKKKAVIDFKSNGHIYDNRIVLNGIDLKAFLDSLPDVKIVKMKCPDGGDNPDSSNTALNMPVIPMNTIAEAVIEMINRGQIQITINGFSISNGLATTQINNKAATGEEVPRTIIVTTRSQYGLPEDAIVYCNFNQLYKIDPSTLQMWANILKRVPNSVLWLLRFPAVGEPNIQQYAQNMGLPQNRIIFSPVAPKEEHVRRGQLADVCLDTPLCNGHTTGMDVLWAGTPMVTMPGETLASRVAASQLTCLGCLELIAKSRQEYEDIAVKLGTDLEYLKKIRGKVWKQRISSPLFNTKQYTMELERLYLQMWEHYAAGNKPDHMIKPVEVTESA
B4: lysine demethylase Fbxl10 (enzyme, UniProt Q6P1G2 1-1309)
chain: MEAEKDSGRRLRAIDRQRYDENEDLSDVEEIVSVRGFSLEEKLRSQLYQGDFVHAMEGKDFNYEYVQREALRVPLVFRDKDGLGIKMPDPDFTVRDVKLLVGSRRLVDVMDVNTQKGTEMSMSQFVRYYETPEAQRDKLYNVISLEFSHTKLEHLVKRPTVVDLVDWVDNMWPQHLKEKQTEATNALAEMKYPKVKKYCLMSVKGCFTDFHIDFGGTSVWYHVFRGGKIFWLIPPTLHNLALYEEWVLSGKQSDIFLGDRVERCQRIELKQGYTFFIPSGWIHAVYTPVDSLVFGGNILHSFNVPMQLRIYEIEDRTRVQPKFRYPFYYEMCWYVLERYVYCVTQRSYLTQEYQRELMLIDAPRKTSVDGFSSDSWLDMEEESCEQQPQEEEEEEEDKEEEGDGADKTPKPPTDDPTSPTSTPPEDQDSTGKKPKAPAIRFLKRTLSNESEESVKSTSMPTDDPKTPTGSPATEVSTKWTHLTEFELKGLKALVEKLESLPENKKCVPEGIEDPQALLEGVKNVLKEHVDDDPTLAITGVPVVSWPKKTAKNRVVGRPKGKLGPASAVKLAANRTTAGARRRRTRCRKCEACLRTECGECHFCKDMKKFGGPGRMKQSCIMRQCIAPVLPHTAVCLVCGEAGKEDTVEEEEGKFNLMLMECSICNEIIHPGCLKIKESEGVVNDELPNCWECPKCNHAGKTGKQKRGPGFKYASNLPGSLLKEQKMNRDNKEGQEPAKRRSECEEAPRRRSDEHPKKVPADGILRRKSDDVHLRRKRKYEKPQELSGRKRASSLQTSPGSSSHLSPRPPLGSSLSPWWRSSLTYFQQQLKPGKEDKLFRKKRRSWKNAEDRLSLANKPLRRFKQEPEDDLPEAPPKTRESDQSRSSSPTAGPSTEGAEGPEEKKKVKMRRKRRLVNKELSKELSKELNHEIQKTESTLAHESQQPIKSEPESENDEPKRPLSHCERPHRFSKGLNGTPRELRHSLGPGLRSPPRVMSRPPPSASPPKCIQMERHVIRPPPISPPPDSLPLDDGAAHVMHREVWMAVFSYLSHRDLCVCMRVCRTWNRWCCDKRLWTRIDLNRCKSITPLMLSGIIRRQPVSLDLSWTNISKKQLSWLINRLPGLRDLVLSGCSWIAVSALCSSSCPLLRTLDVQWVEGLKDAQMRDLLSPPTDNRPGQMDNRSKLRNIVELRLAGLDITDVSLRLIIRHMPLLSKLQLSYCNHINDQSINLLTAVGTTTRDSLTEVNLSDCNKVTDLCLSFFKRCGNICHIDLRYCKQVTKEGCEQFIAEMSVSVQFGQVEEKLLQKLS

Tests used:
[1] = target: Ring1B (mouse (endogenous in ESCs)) (UniProt Q9CQJ4); experiment: affinity purification with mass spectrometry; IP with anti-Ring1B (MBL, D139-3) from 400 ug ESC nuclear extract (WT cells, or Ring1B-/- cells rescued with Ring1BI53A), Protein G Sepharose 2 h at 4 C, washes BC300 (300 mM NaCl, 0.05% NP40) and BC100; 4-20% SDS-PAGE, bands cut, nLC-ESI-MS/MS; peptides also in the control IgG lane discarded; IgG heavy and light chain bands omitted
[2] = target: Ring1BI53A (UniProt Q9CQJ4); experiment: as above

Binder | binding [1] | binding [2]
B1 | binds | binds
B2 | binds | binds
B3 | binds | binds
B4 | binds | binds

Results are given in words; binding and its absence hold for the method and conditions named. Binding seen in cells or lysates may run through a third protein. These calls come from enrichment with a bait or labelling near it, and not all partners need be listed.
